The text below walks through data of publication PMC2650409.

Protein sequences, listed by entry. Tags and fused reporters are not part of them.
UniProt P49407: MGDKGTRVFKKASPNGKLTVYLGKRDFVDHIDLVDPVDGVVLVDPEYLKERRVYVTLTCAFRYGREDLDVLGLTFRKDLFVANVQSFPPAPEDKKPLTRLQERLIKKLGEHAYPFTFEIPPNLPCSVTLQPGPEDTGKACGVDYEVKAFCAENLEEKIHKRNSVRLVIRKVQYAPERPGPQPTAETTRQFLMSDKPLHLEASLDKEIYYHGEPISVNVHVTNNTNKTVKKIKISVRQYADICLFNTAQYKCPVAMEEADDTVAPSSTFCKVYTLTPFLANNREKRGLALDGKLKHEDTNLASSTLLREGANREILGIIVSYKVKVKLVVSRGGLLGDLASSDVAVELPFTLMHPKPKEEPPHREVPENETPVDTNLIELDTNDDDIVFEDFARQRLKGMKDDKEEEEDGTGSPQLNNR
UniProt P32121: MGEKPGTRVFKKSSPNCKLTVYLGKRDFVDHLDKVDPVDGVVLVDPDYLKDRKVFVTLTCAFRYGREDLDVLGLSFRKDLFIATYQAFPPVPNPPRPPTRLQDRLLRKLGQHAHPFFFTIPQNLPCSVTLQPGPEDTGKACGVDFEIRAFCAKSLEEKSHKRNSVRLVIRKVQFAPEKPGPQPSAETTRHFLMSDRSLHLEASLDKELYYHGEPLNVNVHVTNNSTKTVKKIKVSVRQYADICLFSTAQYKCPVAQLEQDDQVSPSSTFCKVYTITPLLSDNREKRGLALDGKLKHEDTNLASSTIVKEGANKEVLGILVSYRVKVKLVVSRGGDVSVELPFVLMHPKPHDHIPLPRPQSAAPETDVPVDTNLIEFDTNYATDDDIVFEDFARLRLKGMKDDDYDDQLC

Results are given in words; binding and its absence hold for the method and conditions named. In cells and extracts the contact can be indirect.

In test [1] the target is β-arrestin 1 (human (endogenous in HEK 293)) (UniProt P49407). In words: co-IP; HEK-GHSR1a cells, serum-starved, ghrelin 100 nM 10 min at 37°C; NP-40 lysis buffer; IP with anti-β-arrestin 1 or anti-β-arrestin 2; blots with pAkt HM (S473), pAkt A-loop (T308), pPDK1 (S241), Rictor, mTOR.
Test [2] concerns the target β-arrestin 2 (human (endogenous in HEK 293)) (UniProt P32121). The description is as above.

B1: 3-phosphoinositide-dependent protein kinase 1 (PDK1), pPDK1 (S241) (enzyme, UniProt O15530 1-556)
chain: MARTTSQLYDAVPIQSSVVLCSCPSPSMVRTQTESSTPPGIPGGSRQGPAMDGTAAEPRPGAGSLQHAQPPPQPRKKRPEDFKFGKILGEGSFSTVVLARELATSREYAIKILEKRHIIKENKVPYVTRERDVMSRLDHPFFVKLYFTFQDDEKLYFGLSYAKNGELLKYIRKIGSFDETCTRFYTAEIVSALEYLHGKGIIHRDLKPENILLNEDMHIQITDFGTAKVLSPESKQARANSFVGTAQYVSPELLTEKSACKSSDLWALGCIIYQLVAGLPPFRAGNEYLIFQKIIKLEYDFPEKFFPKARDLVEKLLVLDATKRLGCEEMEGYGPLKAHPFFESVTWENLHQQTPPKLTAYLPAMSEDDEDCYGNYDNLLSQFGCMQVSSSSSSHSLSASDTGLPQRSGSNIEQYIHDLDSNSFELDLQFSEDEKRLLLEKQAGGNPWHQFVENNLILKMGPVDKRKGLFARRRQLLLTEGPHLYYVDPVNKVLKGEIPWSQELRPEAKNFKTFFVHTPNRTYYLMDPSGNAHKWCRKIQEVWRQRYQSHPDAAVQ
modifications: phosphoserine at 241
On to B1, for which the binding entry in test [1] and in test [2] was “no binding” each time.
